Binding data for 8 molecules are collected here from article PMC7205312.

No constants are given. Whether binding was seen depends on the method and setting. Binding seen in cells or lysates may run through a third protein. Some results given as binding are weak or reduced against the parent protein; the word gives no strength.

Experiment [1] concerns the target Tm-2^2 CC-DP-Rop (tomato) (UniProt Q71BG9). Briefly: co-IP; Myc-Rop and YFP-Rop tagged (plasma-membrane tethered) copies co-expressed in pair in N. benthamiana; IP with anti-GFP beads; blot anti-Myc.
The target of experiment [2] is Tm-2^2 LRR domain (aa 493-861) (tomato) (UniProt Q71BG9). Briefly: co-IP; isolated domains with HA or Myc tag co-expressed in N. benthamiana, no MP; IP with anti-Myc beads; blot anti-HA.
Experiment [3] concerns the target T1, Tm-2^2 NB-ARC domain (aa 141-492) (tomato) (UniProt Q71BG9).
T1 sequence: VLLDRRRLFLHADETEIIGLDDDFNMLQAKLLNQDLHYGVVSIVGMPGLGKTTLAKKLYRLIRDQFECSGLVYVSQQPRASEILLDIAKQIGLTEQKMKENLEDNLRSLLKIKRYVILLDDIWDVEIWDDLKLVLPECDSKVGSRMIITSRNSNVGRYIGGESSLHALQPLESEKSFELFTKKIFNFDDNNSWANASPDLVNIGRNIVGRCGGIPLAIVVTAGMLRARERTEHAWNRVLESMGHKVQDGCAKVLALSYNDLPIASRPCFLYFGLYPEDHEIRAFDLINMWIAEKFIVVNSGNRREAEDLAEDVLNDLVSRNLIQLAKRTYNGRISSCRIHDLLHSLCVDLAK
Briefly: co-IP; isolated domains with C-terminal YFP or Myc tag co-expressed in N. benthamiana for 48 hours; IP with anti-GFP beads; blot anti-Myc.

Experiment [4] deals with Tm-2^2 LRR domain (aa 493-861) (tomato) (UniProt Q71BG9). The experiment is described as above.
Experiment [5] concerns the target T2, Tm-2^2 CC domain (aa 1-141) (tomato) (UniProt Q71BG9).
T2 sequence: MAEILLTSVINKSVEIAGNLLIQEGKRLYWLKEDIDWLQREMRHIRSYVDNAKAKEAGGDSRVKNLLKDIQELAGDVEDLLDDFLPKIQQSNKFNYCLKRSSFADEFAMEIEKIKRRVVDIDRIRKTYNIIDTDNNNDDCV
Described as above.

In experiment [6] the target is T1, Tm-2^2 NB-ARC domain (aa 141-492) (tomato). Briefly: co-IP; isolated domains with HA or Myc tag co-expressed in N. benthamiana, no MP; IP with anti-Myc beads; blot anti-HA.
Experiment [7] addresses Tm-2^2 (tomato) (UniProt Q71BG9). Description: co-IP; Myc- and HA-tagged copies of full-length Tm-2^2 (or D481V) co-expressed WITHOUT TMV MP in N. benthamiana; IP with anti-Myc beads; blot anti-HA.
For experiment [8] the target is unchanged. Briefly: co-IP; Myc- and HA-tagged copies of full-length Tm-2^2 (or mutant) co-expressed WITH TMV MP-YFP (GenBank BAF93925.1) in N. benthamiana; leaves collected at 22-24 hpi; IP with anti-Myc beads, 3 h at 4°C, IP buffer 25 mM Tris-HCl pH 7.5, 150 mM NaCl, 1 mM EDTA, 10% glycerol, 10 mM DTT, 0.2-0.5% NP-40; blot anti-HA.
The target of experiment [9] is Tm-2^2 CC-NB-ARC-Rop (tomato) (UniProt Q71BG9). Description: co-IP; Myc-Rop and YFP-Rop tagged (plasma-membrane tethered) copies co-expressed in pair in N. benthamiana; IP with anti-GFP beads; blot anti-Myc.
Experiment [10] has as its target Tm-2^2 CC-NB-ARC (D481V, L242A)-Rop (tomato) (UniProt Q71BG9). The experiment is described as above.
In experiment [11] the target is Tm-2^2 CC-NB-ARC (D481V)-Rop (tomato) (UniProt Q71BG9). The experiment is described as above.
Experiment [12] deals with Tm-2^2 CC-NB-ARC (D481V, L233A)-Rop (tomato) (UniProt Q71BG9). Described as above.

B1: Tm-2^2 CC-DP-Rop (domain or fragment, UniProt Q71BG9 1-141)
chain: MAEILLTSVINKSVEIAGNLLIQEGKRLYWLKEDIDWLQREMRHIRSYVDNAKAKEAGGDSRVKNLLKDIQELAGDVEDLLDDFLPKIQQSNKFNYCLKRSSFADEFAMEIEKIKRRVVDIDRIRKTYNIIDTDNNNDDCVEFLIVKS
Regarding B1, the binding entry in experiment [1] was “binds”.

B2: Tm-2^2 LRR domain (aa 493-861) (domain or fragment, UniProt Q71BG9 493-861)
chain: ESNFFHTAHDAFGDPGNVARLRRITFYSDNVMIEFFRSNPKLEKLRVLFCFAKDPSIFSHMAYFDFKLLHTLVVVMSQSFQAYVTIPSKFGNMTCLRYLRLEGNICGKLPNSIVKLTRLETIDIDRRSLIQPPSGVWESKHLRHLCYRDYGQACNSCFSISSFYPNIYSLHPNNLQTLMWIPDKFFEPRLLHRLINLRKLGILGVSNSTVKMLSIFSPVLKALEVLKLSFSSDPSEQIKLSSYPHIAKLHLNVNRTMALNSQSFPPNLIKLTLAYFSVDRYILAVLKTFPKLRKLKMFICKYNEEKMDLSGEANGYSFPQLEVLHIHSPNGLSEVTCTDDVSMPKLKKLLLTGFHCRISLSERLKKLSK
For B2, the binding entry in experiment [2], in experiment [3], in experiment [4] and in [5] was “binds” in each case.

B3: Tm-2^2 NB-ARC domain (aa 141-492) (domain or fragment, UniProt Q71BG9 141-492)
chain: VLLDRRRLFLHADETEIIGLDDDFNMLQAKLLNQDLHYGVVSIVGMPGLGKTTLAKKLYRLIRDQFECSGLVYVSQQPRASEILLDIAKQIGLTEQKMKENLEDNLRSLLKIKRYVILLDDIWDVEIWDDLKLVLPECDSKVGSRMIITSRNSNVGRYIGGESSLHALQPLESEKSFELFTKKIFNFDDNNSWANASPDLVNIGRNIVGRCGGIPLAIVVTAGMLRARERTEHAWNRVLESMGHKVQDGCAKVLALSYNDLPIASRPCFLYFGLYPEDHEIRAFDLINMWIAEKFIVVNSGNRREAEDLAEDVLNDLVSRNLIQLAKRTYNGRISSCRIHDLLHSLCVDLAK
Turning to B3, the binding entry in [6], in experiment [3] and in experiment [5] was “binds” throughout.

B4: Tm-2^2 (receptor, UniProt Q71BG9 1-861)
chain: MAEILLTSVINKSVEIAGNLLIQEGKRLYWLKEDIDWLQREMRHIRSYVDNAKAKEAGGDSRVKNLLKDIQELAGDVEDLLDDFLPKIQQSNKFNYCLKRSSFADEFAMEIEKIKRRVVDIDRIRKTYNIIDTDNNNDDCVLLDRRRLFLHADETEIIGLDDDFNMLQAKLLNQDLHYGVVSIVGMPGLGKTTLAKKLYRLIRDQFECSGLVYVSQQPRASEILLDIAKQIGLTEQKMKENLEDNLRSLLKIKRYVILLDDIWDVEIWDDLKLVLPECDSKVGSRMIITSRNSNVGRYIGGESSLHALQPLESEKSFELFTKKIFNFDDNNSWANASPDLVNIGRNIVGRCGGIPLAIVVTAGMLRARERTEHAWNRVLESMGHKVQDGCAKVLALSYNDLPIASRPCFLYFGLYPEDHEIRAFDLINMWIAEKFIVVNSGNRREAEDLAEDVLNDLVSRNLIQLAKRTYNGRISSCRIHDLLHSLCVDLAKESNFFHTAHDAFGDPGNVARLRRITFYSDNVMIEFFRSNPKLEKLRVLFCFAKDPSIFSHMAYFDFKLLHTLVVVMSQSFQAYVTIPSKFGNMTCLRYLRLEGNICGKLPNSIVKLTRLETIDIDRRSLIQPPSGVWESKHLRHLCYRDYGQACNSCFSISSFYPNIYSLHPNNLQTLMWIPDKFFEPRLLHRLINLRKLGILGVSNSTVKMLSIFSPVLKALEVLKLSFSSDPSEQIKLSSYPHIAKLHLNVNRTMALNSQSFPPNLIKLTLAYFSVDRYILAVLKTFPKLRKLKMFICKYNEEKMDLSGEANGYSFPQLEVLHIHSPNGLSEVTCTDDVSMPKLKKLLLTGFHCRISLSERLKKLSK
As for B4, the binding entry is “binds weakly” in the experiment with Tm-2^2 (tomato) [7] and “binds” in the experiment with Tm-2^2 (tomato) [8].

B5: Tm-2^2 CC-NB-ARC-Rop (domain or fragment, UniProt Q71BG9 1-492)
chain: MAEILLTSVINKSVEIAGNLLIQEGKRLYWLKEDIDWLQREMRHIRSYVDNAKAKEAGGDSRVKNLLKDIQELAGDVEDLLDDFLPKIQQSNKFNYCLKRSSFADEFAMEIEKIKRRVVDIDRIRKTYNIIDTDNNNDDCVLLDRRRLFLHADETEIIGLDDDFNMLQAKLLNQDLHYGVVSIVGMPGLGKTTLAKKLYRLIRDQFECSGLVYVSQQPRASEILLDIAKQIGLTEQKMKENLEDNLRSLLKIKRYVILLDDIWDVEIWDDLKLVLPECDSKVGSRMIITSRNSNVGRYIGGESSLHALQPLESEKSFELFTKKIFNFDDNNSWANASPDLVNIGRNIVGRCGGIPLAIVVTAGMLRARERTEHAWNRVLESMGHKVQDGCAKVLALSYNDLPIASRPCFLYFGLYPEDHEIRAFDLINMWIAEKFIVVNSGNRREAEDLAEDVLNDLVSRNLIQLAKRTYNGRISSCRIHDLLHSLCVDLAK
On to B5, for which the binding entry in [9] was “binds”.

B6: Tm-2^2 CC-NB-ARC (D481V, L242A)-Rop (domain or fragment, UniProt Q71BG9 1-492)
chain: MAEILLTSVINKSVEIAGNLLIQEGKRLYWLKEDIDWLQREMRHIRSYVDNAKAKEAGGDSRVKNLLKDIQELAGDVEDLLDDFLPKIQQSNKFNYCLKRSSFADEFAMEIEKIKRRVVDIDRIRKTYNIIDTDNNNDDCVLLDRRRLFLHADETEIIGLDDDFNMLQAKLLNQDLHYGVVSIVGMPGLGKTTLAKKLYRLIRDQFECSGLVYVSQQPRASEILLDIAKQIGLTEQKMKENAEDNLRSLLKIKRYVILLDDIWDVEIWDDLKLVLPECDSKVGSRMIITSRNSNVGRYIGGESSLHALQPLESEKSFELFTKKIFNFDDNNSWANASPDLVNIGRNIVGRCGGIPLAIVVTAGMLRARERTEHAWNRVLESMGHKVQDGCAKVLALSYNDLPIASRPCFLYFGLYPEDHEIRAFDLINMWIAEKFIVVNSGNRREAEDLAEDVLNDLVSRNLIQLAKRTYNGRISSCRIHVLLHSLCVDLAK
In the case of B6, in [10], the binding entry is “binds”.

B7: Tm-2^2 CC-NB-ARC (D481V)-Rop (domain or fragment, UniProt Q71BG9 1-492)
chain: MAEILLTSVINKSVEIAGNLLIQEGKRLYWLKEDIDWLQREMRHIRSYVDNAKAKEAGGDSRVKNLLKDIQELAGDVEDLLDDFLPKIQQSNKFNYCLKRSSFADEFAMEIEKIKRRVVDIDRIRKTYNIIDTDNNNDDCVLLDRRRLFLHADETEIIGLDDDFNMLQAKLLNQDLHYGVVSIVGMPGLGKTTLAKKLYRLIRDQFECSGLVYVSQQPRASEILLDIAKQIGLTEQKMKENLEDNLRSLLKIKRYVILLDDIWDVEIWDDLKLVLPECDSKVGSRMIITSRNSNVGRYIGGESSLHALQPLESEKSFELFTKKIFNFDDNNSWANASPDLVNIGRNIVGRCGGIPLAIVVTAGMLRARERTEHAWNRVLESMGHKVQDGCAKVLALSYNDLPIASRPCFLYFGLYPEDHEIRAFDLINMWIAEKFIVVNSGNRREAEDLAEDVLNDLVSRNLIQLAKRTYNGRISSCRIHVLLHSLCVDLAK
With B7, the binding result in experiment [11] is reported as “binds”.

B8: Tm-2^2 CC-NB-ARC (D481V, L233A)-Rop (domain or fragment, UniProt Q71BG9 1-492)
chain: MAEILLTSVINKSVEIAGNLLIQEGKRLYWLKEDIDWLQREMRHIRSYVDNAKAKEAGGDSRVKNLLKDIQELAGDVEDLLDDFLPKIQQSNKFNYCLKRSSFADEFAMEIEKIKRRVVDIDRIRKTYNIIDTDNNNDDCVLLDRRRLFLHADETEIIGLDDDFNMLQAKLLNQDLHYGVVSIVGMPGLGKTTLAKKLYRLIRDQFECSGLVYVSQQPRASEILLDIAKQIGATEQKMKENLEDNLRSLLKIKRYVILLDDIWDVEIWDDLKLVLPECDSKVGSRMIITSRNSNVGRYIGGESSLHALQPLESEKSFELFTKKIFNFDDNNSWANASPDLVNIGRNIVGRCGGIPLAIVVTAGMLRARERTEHAWNRVLESMGHKVQDGCAKVLALSYNDLPIASRPCFLYFGLYPEDHEIRAFDLINMWIAEKFIVVNSGNRREAEDLAEDVLNDLVSRNLIQLAKRTYNGRISSCRIHVLLHSLCVDLAK
For the molecule B8, the binding entry in experiment [12] is recorded as “binds”.
